The target in assay [1] is T1, GST-Kap123 (S. cerevisiae) (UniProt P40069).
T1 sequence: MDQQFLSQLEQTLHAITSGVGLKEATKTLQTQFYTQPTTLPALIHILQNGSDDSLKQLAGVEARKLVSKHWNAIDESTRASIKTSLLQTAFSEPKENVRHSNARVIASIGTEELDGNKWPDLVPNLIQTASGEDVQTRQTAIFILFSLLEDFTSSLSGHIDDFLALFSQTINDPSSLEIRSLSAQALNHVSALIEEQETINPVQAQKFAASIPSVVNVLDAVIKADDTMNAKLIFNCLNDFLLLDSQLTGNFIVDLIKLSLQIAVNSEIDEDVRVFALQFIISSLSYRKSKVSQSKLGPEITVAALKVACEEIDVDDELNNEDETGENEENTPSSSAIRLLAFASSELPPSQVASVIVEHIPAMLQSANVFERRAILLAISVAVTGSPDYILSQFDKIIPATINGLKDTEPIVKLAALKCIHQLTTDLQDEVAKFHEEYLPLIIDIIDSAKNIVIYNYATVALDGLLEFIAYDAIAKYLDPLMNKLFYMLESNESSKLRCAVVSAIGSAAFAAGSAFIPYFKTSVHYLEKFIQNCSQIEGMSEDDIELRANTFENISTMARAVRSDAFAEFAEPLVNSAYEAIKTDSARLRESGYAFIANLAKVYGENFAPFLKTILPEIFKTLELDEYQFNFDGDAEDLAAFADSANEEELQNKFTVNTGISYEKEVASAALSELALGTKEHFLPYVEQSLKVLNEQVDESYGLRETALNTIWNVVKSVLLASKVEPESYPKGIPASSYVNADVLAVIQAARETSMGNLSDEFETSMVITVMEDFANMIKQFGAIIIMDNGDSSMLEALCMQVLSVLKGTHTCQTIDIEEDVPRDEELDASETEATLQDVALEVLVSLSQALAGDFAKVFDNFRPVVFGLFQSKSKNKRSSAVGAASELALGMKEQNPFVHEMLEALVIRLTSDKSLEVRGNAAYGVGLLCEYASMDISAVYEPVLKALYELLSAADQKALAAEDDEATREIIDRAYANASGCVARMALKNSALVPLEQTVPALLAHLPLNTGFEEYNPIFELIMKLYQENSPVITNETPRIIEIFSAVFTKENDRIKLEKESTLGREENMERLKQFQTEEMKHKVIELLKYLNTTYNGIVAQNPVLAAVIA
Briefly: pull-down; dissociation assay, 1 hr: GST-importin:r-protein^FLAG complexes pre-formed on Glutathione Sepharose (r-protein from E. coli lysate) incubated with buffer alone, 1.5 µM RanGTP, 1.5 µM Tsr2 or His6-Tsr2, or 3 nM 3'-end of 18S rRNA for 1 hr at 4°C; only the target purified.

The target in assay [2] is T2, Enp1-TAP (S. cerevisiae), P38333.
T2 chain: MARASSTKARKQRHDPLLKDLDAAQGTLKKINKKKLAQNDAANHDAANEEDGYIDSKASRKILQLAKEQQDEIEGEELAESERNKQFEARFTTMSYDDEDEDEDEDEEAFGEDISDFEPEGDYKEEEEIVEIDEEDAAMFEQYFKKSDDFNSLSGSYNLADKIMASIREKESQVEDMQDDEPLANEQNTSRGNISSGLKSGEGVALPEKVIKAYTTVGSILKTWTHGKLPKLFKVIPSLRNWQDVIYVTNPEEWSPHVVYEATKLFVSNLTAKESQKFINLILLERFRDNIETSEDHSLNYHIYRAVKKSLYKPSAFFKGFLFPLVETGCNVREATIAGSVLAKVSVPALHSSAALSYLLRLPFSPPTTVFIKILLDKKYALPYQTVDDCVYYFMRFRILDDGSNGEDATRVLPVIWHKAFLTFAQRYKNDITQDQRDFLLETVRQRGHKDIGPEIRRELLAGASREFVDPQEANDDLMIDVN
Nature of the assay: co-IP; tandem affinity purification of pre-ribosomal particles by TAP-tagged baits from yeast (WT and, for Enp1-TAP, Tsr2-depleted cells); Calmodulin-eluates analysed by Western. As to conditions: remark: other sources report otherwise.

A further assay deals with T3, GST-Pse1 (S. cerevisiae) (UniProt P32337).
T3 sequence: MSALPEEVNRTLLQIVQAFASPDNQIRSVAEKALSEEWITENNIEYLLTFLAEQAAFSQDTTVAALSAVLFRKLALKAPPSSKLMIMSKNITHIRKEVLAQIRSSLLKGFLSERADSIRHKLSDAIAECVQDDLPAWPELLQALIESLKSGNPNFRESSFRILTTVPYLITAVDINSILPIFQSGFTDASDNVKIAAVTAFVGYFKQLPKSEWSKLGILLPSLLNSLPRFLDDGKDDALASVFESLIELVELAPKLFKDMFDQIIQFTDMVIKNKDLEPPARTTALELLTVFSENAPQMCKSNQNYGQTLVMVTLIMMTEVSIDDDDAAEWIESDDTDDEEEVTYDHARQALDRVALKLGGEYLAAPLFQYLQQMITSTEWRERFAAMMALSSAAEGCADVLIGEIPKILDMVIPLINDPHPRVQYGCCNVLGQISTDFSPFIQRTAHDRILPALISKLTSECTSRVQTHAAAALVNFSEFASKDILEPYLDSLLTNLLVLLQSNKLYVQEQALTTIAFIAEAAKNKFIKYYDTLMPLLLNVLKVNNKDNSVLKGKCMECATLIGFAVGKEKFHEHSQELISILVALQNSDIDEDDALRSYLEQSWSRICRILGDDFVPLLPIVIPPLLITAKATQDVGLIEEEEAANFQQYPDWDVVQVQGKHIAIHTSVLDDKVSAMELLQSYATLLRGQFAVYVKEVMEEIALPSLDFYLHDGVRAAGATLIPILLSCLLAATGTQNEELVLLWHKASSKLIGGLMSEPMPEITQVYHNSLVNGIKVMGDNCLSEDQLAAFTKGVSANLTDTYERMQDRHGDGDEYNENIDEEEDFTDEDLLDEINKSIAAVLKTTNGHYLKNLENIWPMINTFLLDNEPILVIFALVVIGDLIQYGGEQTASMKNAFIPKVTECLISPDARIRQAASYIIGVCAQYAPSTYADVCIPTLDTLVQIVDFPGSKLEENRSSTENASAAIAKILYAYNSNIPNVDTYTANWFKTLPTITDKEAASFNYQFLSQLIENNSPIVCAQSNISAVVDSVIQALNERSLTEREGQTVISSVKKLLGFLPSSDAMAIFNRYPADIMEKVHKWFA
Nature of the assay: pull-down; Pse1:Slx9 complexes immobilised on Glutathione Sepharose, incubated with buffer alone, 1.5 µM RanGTP, 1.5 µM Tsr2 or 3 nM 3'-end of 18S rRNA for 1 hr at 4°C.

The target in the next assay is T4, Enp1-TAP (S. cerevisiae) (UniProt P38333).
T4 sequence: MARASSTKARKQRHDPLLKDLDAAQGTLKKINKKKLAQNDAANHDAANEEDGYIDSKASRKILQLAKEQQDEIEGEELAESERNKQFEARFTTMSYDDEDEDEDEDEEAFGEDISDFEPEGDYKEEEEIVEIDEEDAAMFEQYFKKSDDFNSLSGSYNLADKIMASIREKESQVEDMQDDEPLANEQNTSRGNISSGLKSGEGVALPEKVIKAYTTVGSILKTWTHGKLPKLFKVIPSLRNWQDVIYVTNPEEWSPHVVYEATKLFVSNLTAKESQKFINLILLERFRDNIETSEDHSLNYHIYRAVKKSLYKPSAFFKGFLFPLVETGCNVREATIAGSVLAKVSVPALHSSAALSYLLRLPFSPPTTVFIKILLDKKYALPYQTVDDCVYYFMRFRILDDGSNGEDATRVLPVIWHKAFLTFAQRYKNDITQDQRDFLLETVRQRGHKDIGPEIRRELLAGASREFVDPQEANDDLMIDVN
Nature of the assay: co-IP; tandem affinity purification of pre-ribosomal particles by TAP-tagged baits from yeast (WT and, for Enp1-TAP, Tsr2-depleted cells); Calmodulin-eluates analysed by Western.

No constants are given. Whether binding was seen depends on the method and setting. Binding seen in cells or lysates may run through a third protein. Some results given as binding are weak or reduced against the parent protein; the word gives no strength. For part of these data: Where a sequence is shown, tags or fusion partners need not be part of it.

Take eS31^FLAG (from UniProt P05759 77-152): the binding result in assay [1] is given as “binds”.

B1: eS8^FLAG (protein, UniProt P0CX39 1-200)
chain: MGISRDSRHKRSATGAKRAQFRKKRKFELGRQPANTKIGAKRIHSVRTRGGNKKYRALRIETGNFSWASEGISKKTRIAGVVYHPSNNELVRTNTLTKAAIVQIDATPFRQWFEAHYGQTLGKKKNVKEEETVAKSKNAERKWAARAASAKIESSVESQFSAGRLYACISSRPGQSGRCDGYILEGEELAFYLRRLTAKK
As for B1, in assay [1], the binding result was “binds”.

B2: uS3 (yeast Rps3), endogenous, P05750 1-240 (protein)
chain: MVALISKKRKLVADGVFYAELNEFFTRELAEEGYSGVEVRVTPTKTEVIIRATRTQDVLGENGRRINELTLLVQKRFKYAPGTIVLYAERVQDRGLSAVAQAESMKFKLLNGLAIRRAAYGVVRYVMESGAKGCEVVVSGKLRAARAKAMKFADGFLIHSGQPVNDFIDTATRHVLMRQGVLGIKVKIMRDPAKSRTGPKALPDAVTIIEPKEEEPILAPSVKDYRPAEETEAQAEPVEA
Consider B2, for which the binding entry in assay [2] is “binds”.

B3: Slx9 (protein, UniProt P53251 1-210)
chain: MVAKKRNTLRSKVSARNSQNFGPDVANNGILDESYDIESDPRAFLHQPKETKKEKLLNRQNTFLSNLKGKSTLNDGIAANFDGISKSSIRRRKRKLREELKPRMQDLLTSLEQEKDLRGIIENSSKDMNNDDDIDMDSKIRFVDTKEMNLKKIEPGSVRIKKNQPNIRNQKGAKALAANETARFNQVLTNQDFQKNPFGALREVIKLQKQ
With B3, in the assay with GST-Pse1 (S. cerevisiae), the binding entry is recorded as “binds”.

B4: uS7 (yeast Rps5), endogenous (protein, UniProt P26783 1-225)
chain: MSDTEAPVEVQEDFEVVEEFTPVVLATPIPEEVQQAQTEIKLFNKWSFEEVEVKDASLVDYVQVRQPIFVAHTAGRYANKRFRKAQCPIIERLTNSLMMNGRNNGKKLKAVRIIKHTLDIINVLTDQNPIQVVVDAITNTGPREDTTRVGGGGAARRQAVDVSPLRRVNQAIALLTIGAREAAFRNIKTIAETLAEELINAAKGSSTSYAIKKKDELERVAKSNR
For the molecule B4, the binding result with Enp1-TAP (S. cerevisiae) is “binds”.

B5: Nob1, endogenous (enzyme, UniProt Q08444 1-459)
chain: MTENQTAHVRALILDATPLITQSYTHYQNYAQSFYTTPTVFQEIKDAQARKNLEIWQSLGTLKLVHPSENSIAKVSTFAKLTGDYSVLSANDLHILALTYELEIKLNNGDWRLRKKPGDALDASKADVGTDGKQKLTEDNKKEEDSESVPKKKNKRRGGKKQKAKREAREAREAENANLELESKAEEHVEEAGSKEQICNDENIKESSDLNEVFEDADDDGDWITPENLTEAIIKDSGEDTTGSLGVEASEEDRHVALNRPENQVALATGDFAVQNVALQMNLNLMNFMSGLKIKRIRNYMLRCHACFKIFPLPKDGKPKHFCASCGGQGTLLRCAVSVDSRTGNVTPHLKSNFQWNNRGNRYSVASPLSKNSQKRYGKKGHVHSKPQENVILREDQKEYEKVIKQEEWTRRHNEKILNNWIGGGSADNYISPFAITGLKQHNVRIGKGRYVNSSKRRS
For B5, the binding entry in the assay with Enp1-TAP (S. cerevisiae) is “binds”.

The values above are taken from paper PMC4161973.
